Assay results taken from patent publication US20230287048A1, “COMPOSITION AND KIT FOR REMOVING LIPOPOLYSACCHARIDE” (HLB SCIENCE INC., priority 2020, published 2023).
At least one peptide structure holds a part that was inferred or is arguable (an end, a ring closure or a residue). Where a SMILES comes first, the peptide text is derived from it. [ ]: non-standard residue; d: D form. AEEA = NCCOCCOCC(=O)O

Test: Binding affinity (Kd) between peptide and LPS by isothermal titration calorimeter (ITC)
Settings: for Kd: 0.2 mM peptide in cell, 2 mM LPS in syringe, PBS, read-out: Kd (calculated by ITC)
Description: FP1 is denoted as wild type (WT), and peptides having point mutations for various parts in WT were prepared (FP3, FP5, FP6, and FP9). To increase the interaction with LPS in the residue sequence of FP3, peptides were designed based on an FP3 and LPS-binding model (FP12-NH2 and FP13-NH2), and non-natural amino acid and amino acid isomers (allomeric D-type amino acids) were additionally introduced, thereby designing peptides (allD FP12-NH2, allD FP13-NH2, allD FP-13-9a, allD FP-13-9w, allD FP-13-9k, and allD FP13-NH2 (AcOH)). In addition, an N-terminal PEGylated peptide (PEG-allD FP13-NH2(AcOH)) was additionally designed and synthesized by Anygen Co. Ltd., and then supplied. Using each of the provided peptides, lipopolysaccharide (LPS), and an isothermal titration calorimeter (ITC) for measuring binding affinity (Kd), binding affinity with LPS was confirmed.
Specifically, a method of analyzing binding affinity (Kd) between a peptide and LPS is as follows.
The binding affinity was measured using Malvern MicroCal PEAQ-ITC cell equipment, and to confirm the interaction with LPS, pre-treatment was performed as follows. The volume and shape of a cell sample were 300 μL, coin-shaped, and fixed-in-place; and the syringe rotation rate was 1,200 rpm; and temperatures were 30° C., 35° C., and 25° C.
Before the test, LPS and the peptide were diluted with PBS in advance, thereby obtaining 2 mM LPS and a 0.2 mM peptide. 300 μL of the peptide was put into cells in an ITC device, which had been washed, and 40 μL of LPS was contained in a syringe. Measurement conditions for ITC (temperature, the number of injections) were set, the syringe was inserted into the cell, and the ITC measurement began. When the measurement was completed, the Kd values of LPS and the peptide were calculated through analysis.

Kd [µM]	LPS binding affinity compared with FP1 (wild type, WT)	SMILES
17.5	–	CC(C)C[C@@H](NC(=O)[C@@H](Cc1ccc(O)cc1)NC(=O)[C@@H](CCCNC(=N)N)NC(=O)[C@@H](CCCNC(=N)N)NC(=O)[C@@H](CC(C)C)NC(=O)[C@@H](CCCCN)NC(=O)[C@H](NC(=O)[C@@H](CCCNC(=N)N)NC(=O)[C@@H](CC(C)C)NC(=O)[C@@H](CCCCN)NC(=O)COCCOCCN)C(C)C)C(=O)N[C@H](CCCNC(=N)N)C(N)=O [PEG-alld FP13-NH2 (AcOH), PEG-KLRVKLRRYLR-NH2] (H-[AEEA][dK][dL][dR][dV][dK][dL][dR][dR][dY][dL][dR]-NH2; N-terminus assumed)
9.54	the same as or higher than FP1	CC(C)C[C@@H](NC(=O)[C@H](N)CCCCN)C(=O)N[C@H](CCCNC(=N)N)C(=O)N[C@@H](C(=O)N[C@H](CCCCN)C(=O)N[C@H](CC(C)C)C(=O)N[C@H](CCCNC(=N)N)C(=O)N[C@H](CCCNC(=N)N)C(=O)N[C@H](C)C(=O)N[C@H](CC(C)C)C(=O)N[C@H](CCCNC(=N)N)C(N)=O)C(C)C [allD-FP-13-9a-NH2, klryklrralr-NH2] (H-[dK][dL][dR][dV][dK][dL][dR][dR][dA][dL][dR]-NH2; N-terminus assumed)
